Assay results reported in PMC3784060 (Cancer Chemotherapy and Pharmacology, 2013).
pIC50: −log10 of the molar value. Read-outs that look alike come from different tables or passages of the source.

Columns and labels:
primary leukemia cells = assay: cells; conditions: Homo sapiens
Protocol: Primary leukemia cells for in vitro studies were isolated from BM or PB obtained from AML or ALL patients enrolled on a separate University of Maryland, Baltimore, IRB-approved protocol for tissue collection and not treated on this clinical study. The cells were isolated by gradient centrifugation using LSM (Mediatech) according to the manufacturer’s protocol. Cells were used either fresh or after viable freezing (FBS/10 % DMSO). Primary leukemia cells were cultured in RPMI 1640 (Invitrogen, Grand Island, NY, USA) supplemented with 15 % heat-inactivated FBS (HyClone Laboratories Inc., Red Bank, NJ, USA) and 200 mM L-Glutamine (Invitrogen). Leukemia cell lines HL-60 (AML), MOLT-4 (T cell ALL), and K562 (chronic myelogenous leukemia [CML] in erythroid blast transformation) were purchased from American Type Culture Collection (ATCC, Manassas, VA, USA) and cultured in RPMI 1640 (Invitrogen) supplemented with 10 % heat-inactivated FBS (HyClone Laboratories Inc.) and 200 mM L-Glutamine (Invitrogen).

[1] = system: variety of human cell lines, including leukemia cells; conditions: read-out: median IC50, growth inhibition; cited from earlier work

pIC50 (primary leukemia cells; 24 h, read-out: IC50 (WST-1), ALL 03, 24 h): 6.65
pIC50 (primary leukemia cells; 24 h, read-out: IC50 (WST-1), AML 02, 24 h): 7.90
pIC50 (primary leukemia cells; 24 h, read-out: IC50 (WST-1), AML 04, 24 h): 7.87
pIC50 (primary leukemia cells; 24 h, read-out: IC50 (WST-1), AML 05, 24 h): 7.99
pIC50 (primary leukemia cells; 24 h, read-out: IC50 (WST-1), AML06, 24 h): 7.95
pIC50 (primary leukemia cells; 24 h, read-out: IC50 (WST-1), AML 08, 24 h): 8.02
pIC50 (primary leukemia cells; 24 h, read-out: IC50 (WST-1), primary AML samples, 24 h, range stated as that observed for leukemia cell lines): 7.77 to 8.10
pIC50 (primary leukemia cells; AML01, 24 h, read-out: IC50 (WST-1), AML 01, 24 h): 8.05
SMILES: CCc1cnn2c(NCc3ccc[n+]([O-])c3)cc(N3CCCC[C@H]3CCO)nc12 [Dinaciclib]
pIC50 [1]: 7.96
